Measured values: PMC2860244

Protein sequences, listed by entry. Tags and fused reporters are not part of them.
UniProt P20263: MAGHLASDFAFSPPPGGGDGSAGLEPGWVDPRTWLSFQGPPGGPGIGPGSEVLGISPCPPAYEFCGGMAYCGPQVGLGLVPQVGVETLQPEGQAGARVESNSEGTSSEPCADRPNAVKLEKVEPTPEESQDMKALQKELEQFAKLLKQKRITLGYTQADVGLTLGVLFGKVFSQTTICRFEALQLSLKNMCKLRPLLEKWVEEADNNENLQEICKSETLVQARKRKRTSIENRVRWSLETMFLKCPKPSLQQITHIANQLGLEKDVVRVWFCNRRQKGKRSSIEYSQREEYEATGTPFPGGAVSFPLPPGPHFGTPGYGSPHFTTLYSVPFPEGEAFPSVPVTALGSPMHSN

These binders were tested against Oct4-FTAP fusion protein (mouse) (UniProt P20263) (assay: affinity purification with mass spectrometry; one-step purification on anti-FLAG M2 Dynal beads from whole-cell extracts of Oct4-FTAP ESCs against unmodified control cells (AB2.2); 150 mM NaCl, 0.1% NP-40, 90 min, 4°C; elution with AcTEV protease; three independent purifications; LC-MS/MS).

binding | Binder
binds | Zscan4b (protein, UniProt E9Q3G0 1-505) MASQQAPAKDLQTNNLEFTPTDSSGVQWAEDISNSPSAQLNFSPSNNGCWATQELQSLWKMFNSWLQPEKQTKEQMISQLVLEQFLLTGHCKDKYALTEKWKASGSDMRRFMESLTDECLKPPVMVHVSMQGQEALFSENMPLKEVIKLLKQQQSATRPIPDNAQMPVDTTQDRLLATGQENSENECNTSCNATEVNVGESCSGNEKDSLLITQKEQNHEHEEGNVVCQFPRGARRASQDTSSHHVDFPSALTPADVPMEEQPMDLSRENISEDKNNCYNTSRNAATQVYSGDNIPRNKTDSLFINKRIYHPEPEVGDIPYGVPQDSTRASQGTSTCLQESLGECFSEKDPREVPGLQSRQEQPISDPVLGKNHEANLPCESHQKRFHRDAKLYKCEECSRMFKHARSLSSHQRTHLNKKSELLCITCQKIFKRVSDLRTHEIIHMSEKPFKCSTCEKSFSHKTNLKYHEMIHTGEMPYVCSLCSRRFRQSSTYHRHLRNYHRSD
binds | apoptotic chromatin condensation inducer in the nucleus (protein, UniProt Q9JIX8 1-1338) MWGRKRPNSSGETRGILSGNRGVDYGSGRGQSGPFEGRWRKLPKMPEAVGTDPSTSRKMAELEEVTLDGKPLQALRVTDLKAALEQRGLAKSGQKSALVKRLKGALMLENLQKHSTPHAAFQPNSQIGEEMSQNSFIKQYLEKQQELLRQRLEREAREAAELEEASAESEDEMTHPEGVASLLPPDFQSSLNRPELELSTHSPRKSSSFSEEKGESDDEKPRKGERRSSRVRQAKSKLPEYSQTAEEEEDQETPSRNLRVRADRNLKIEEEEEEEEEEEDDDDEEEEEVDEAQKSREAEAPTLKQFEDEEGEERTRAKPEKVVDEKPLNIRSQEKGELEKGGRVTRSQEEARRSHLARQQQEKETQIVSLPQEENEVKSSQSLEEKSQSPSPPPLPEDLEKAPVVLQPEQIVSEEETPPPLLTKEASSPPTHIQLQEEMEPVEGPAPPVLIQLSPPNTDAGAREPLASPHPAQLLRSLSPLSGTTDTKAESPAGRVSDESVLPLAQKSSLPECSTQKGVESEREKSAPLPLTVEEFAPAKGITEEPMKKQSLEQKEGRRASHALFPEHSGKQSADSSSSRSSSPSSSSSPSRSPSPDSVASRPQSSPGSKQRDGAQARVHANPHERPKMGSRSTSESRSRSRSRSRSASSSSRKSLSPGVSRDSNTSYTETKDPSCGQEAAAPSGPQLQVLEPKEKAPTFSASVRGRHLSHPEPEQQHVIQRLQPEQGSPKKCEAEEAEPPAATQPQTSETQISHLLESERTHHTVEEKEEVTMDTSENRPENEVPEPPLPVADQVSNDERPEGGAEEEEKKESSMPKSFKRKISVVSATKGVQAGNSDTEGGQPGRKRRWGASTAATQKKPSISITTESLKSLIPDIKPLAGQEAVVDLHADDSRISEDETERNGDDGTHDKGLKICRTVTQVVPAEGQENGQREEEEEKEPEAELPAPPQVSVEVALPPPVEHEVKKVTLGDTLTRRSISQQKSGVSITIDDPVRTAQVPSPPRGKISNIVHISNLVRPFTLGQLKELLGRTGTLVEEAFWIDKIKSHCFVTYSTVEEAVATRTALHGVKWPQSNPKFLCADYAEQDELDYHRGLLVDRPSETKAEEQGAPRPLHPPPPPPVQPPPHPRAEQREQERAVREQWAEREREMERRERTRSEREWDRDKVREGPRSRSRSRDRRRKERAKSKEKKSEKKEKAQEEPPAKLLDDLFRKTKAAPCIYWLPLTESQIVQKEAEQAERAKEREKRRKEREEEEQKEREKEAERERNRQLEREKRREHSRERERDRERERDRGDRERERERDRDRGRERDRRDTKRHSRSRSRSTPVRDRGGRR
binds | interferon-activable protein 202 (protein, UniProt Q9R002 1-445) MSNRNLRSSTNSEFSEGQHQTPSSDSSGHGEDQPQASPGPNKKSHTPKKNISKGAVLHEKPMTVMVLTATEPFNYKEGKENMFHATVATESQYYRVKVFNMDLKEKFTENKFITISKYFNSSGILEINETATVSEAAPNQIIEVPKNIIRSAKETLKISKIKELDSGTLIYGVFAVEKKKVNDKSITFKIKDNEDNIKVVWDKKQHNINYEKGDKLQLFSFHLRKGNGKPILHSGNHSFIKGEKLLKESFEGDGYHKGPKQVVALKATKLFTYDSIKSKKMFHATVATDTEFFRVMVFEENLEKKFIPGNTIALSDYFGMYGSLAIHEYSSVSEVKSQNKEDSSSSDERLIEHLKICDLHLQTKERLVDGEFKVYRKSTGNNCICYGIWDDTGAMKVVVSGQLTSVNCEIGNTIRLVCFELTSNADEWFLRSTRYSYMEVIMPEK

No constants are given. Whether binding was seen depends on the method and setting. In cells and extracts the contact can be indirect. Here binding means that the protein was enriched with, or labelled near, the bait; the list need not be complete.
